Assay [1] deals with Epidermal growth factor receptor (EGFR), human (human (endogenous in HT-29)) (UniProt P00533). Nature of the assay: co-IP; HT-29 cell lysates; cells treated with DMSO, PF-562271 (5 μM) or erlotinib (10 μM) for one hour before harvest; same immunoprecipitation protocol as for tissue lysates; anti-HA or anti-Flag beads as controls.
In assay [2] the target is Epidermal growth factor receptor (Egfr), mouse (mouse (endogenous in cecal mucosa)) (UniProt Q01279). Nature of the assay: co-IP; cecal mucosa lysates of 6-week-old mice (control, BC, KC; BC also treated with the EGFR inhibitor erlotinib), pre-cleared with Protein G-sepharose, incubated with anti-EGFR antibody conjugated to agarose at 4°C for 4 hr; washed with 20 mM Tris-HCl pH 7.5, 150 mM NaCl, 1 mM EDTA, 1% NP40, 10% glycerol; immunoblotting. (In general: In western blotting, separated proteins are transferred to a membrane and probed.)

The chains behind the UniProt entries cited, without tags or fusion partners.
UniProt Q05397: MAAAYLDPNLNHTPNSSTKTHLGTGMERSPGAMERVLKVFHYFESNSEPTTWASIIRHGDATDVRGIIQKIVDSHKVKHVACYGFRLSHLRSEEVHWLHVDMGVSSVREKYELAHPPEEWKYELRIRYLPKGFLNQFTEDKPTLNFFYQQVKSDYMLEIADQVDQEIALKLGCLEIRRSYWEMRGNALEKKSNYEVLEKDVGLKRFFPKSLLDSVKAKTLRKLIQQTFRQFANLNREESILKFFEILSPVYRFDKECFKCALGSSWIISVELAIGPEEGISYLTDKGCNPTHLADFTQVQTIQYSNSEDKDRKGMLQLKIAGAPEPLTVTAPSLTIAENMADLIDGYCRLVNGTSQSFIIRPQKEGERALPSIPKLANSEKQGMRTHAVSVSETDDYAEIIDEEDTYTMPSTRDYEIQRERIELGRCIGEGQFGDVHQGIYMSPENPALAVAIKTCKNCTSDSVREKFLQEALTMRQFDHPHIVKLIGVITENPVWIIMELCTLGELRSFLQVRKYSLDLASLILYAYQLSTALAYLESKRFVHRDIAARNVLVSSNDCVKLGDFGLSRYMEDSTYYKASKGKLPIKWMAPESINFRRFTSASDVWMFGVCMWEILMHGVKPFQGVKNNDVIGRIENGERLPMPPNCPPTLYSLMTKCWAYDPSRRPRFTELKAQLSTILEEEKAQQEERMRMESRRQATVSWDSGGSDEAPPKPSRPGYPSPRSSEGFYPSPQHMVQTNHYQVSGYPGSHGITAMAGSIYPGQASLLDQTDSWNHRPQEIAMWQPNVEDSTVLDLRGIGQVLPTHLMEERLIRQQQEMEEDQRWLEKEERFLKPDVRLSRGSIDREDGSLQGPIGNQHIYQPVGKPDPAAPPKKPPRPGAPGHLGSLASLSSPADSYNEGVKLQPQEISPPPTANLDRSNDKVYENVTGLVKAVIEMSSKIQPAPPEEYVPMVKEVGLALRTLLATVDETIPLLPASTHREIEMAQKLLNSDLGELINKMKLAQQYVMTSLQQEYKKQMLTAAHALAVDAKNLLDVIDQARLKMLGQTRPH
UniProt P34152: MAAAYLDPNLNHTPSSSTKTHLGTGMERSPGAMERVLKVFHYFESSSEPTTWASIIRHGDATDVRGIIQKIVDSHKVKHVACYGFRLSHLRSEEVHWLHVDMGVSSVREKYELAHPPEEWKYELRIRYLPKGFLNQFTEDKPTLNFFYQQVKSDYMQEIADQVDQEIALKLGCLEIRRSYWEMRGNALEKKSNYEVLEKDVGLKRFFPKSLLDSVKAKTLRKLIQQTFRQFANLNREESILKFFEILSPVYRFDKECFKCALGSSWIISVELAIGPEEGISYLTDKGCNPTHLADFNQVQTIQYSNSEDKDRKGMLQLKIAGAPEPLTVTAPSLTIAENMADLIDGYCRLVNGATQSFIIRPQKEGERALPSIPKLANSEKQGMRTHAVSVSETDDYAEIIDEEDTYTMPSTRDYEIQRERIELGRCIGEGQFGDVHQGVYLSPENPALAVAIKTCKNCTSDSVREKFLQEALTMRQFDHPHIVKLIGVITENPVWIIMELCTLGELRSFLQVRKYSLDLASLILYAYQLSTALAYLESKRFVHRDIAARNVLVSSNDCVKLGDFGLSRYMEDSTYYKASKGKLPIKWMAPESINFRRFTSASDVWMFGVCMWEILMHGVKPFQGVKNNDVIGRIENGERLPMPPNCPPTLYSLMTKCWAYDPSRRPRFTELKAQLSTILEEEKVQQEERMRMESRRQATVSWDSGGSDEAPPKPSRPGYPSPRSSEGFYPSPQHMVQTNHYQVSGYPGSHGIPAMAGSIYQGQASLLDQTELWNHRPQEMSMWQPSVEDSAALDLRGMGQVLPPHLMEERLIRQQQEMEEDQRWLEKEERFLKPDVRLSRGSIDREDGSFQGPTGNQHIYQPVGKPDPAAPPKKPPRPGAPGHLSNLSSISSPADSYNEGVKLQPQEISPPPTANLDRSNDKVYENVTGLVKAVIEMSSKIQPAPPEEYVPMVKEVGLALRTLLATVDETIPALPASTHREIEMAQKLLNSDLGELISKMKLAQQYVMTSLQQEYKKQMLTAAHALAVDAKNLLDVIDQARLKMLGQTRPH

Results are given in words; binding and its absence hold for the method and conditions named. In cells and extracts the contact can be indirect. Some binding calls cover weakened binding; strength is not graded here.

Consider “Focal adhesion kinase (FAK), human (from UniProt Q05397 1-1052)”, for which the binding result in assay [1] is “binds”.
As for “Focal adhesion kinase (Fak), mouse (from UniProt P34152 1-1052)”, the binding result in assay [2] is on record as “binds”.

(Values after publication PMC9915899.)
